The results in this text go back to paper PMC5007439.

Sequences of proteins named here, by UniProt entry; tags and fusion partners are left off.
UniProt P03612: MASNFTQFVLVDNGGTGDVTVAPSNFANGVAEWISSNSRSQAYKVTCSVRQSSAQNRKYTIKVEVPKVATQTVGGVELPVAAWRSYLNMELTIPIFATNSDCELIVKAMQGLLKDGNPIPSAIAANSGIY

Results are given in words; binding and its absence hold for the method and conditions named. Some results given as binding are weak or reduced against the parent protein; the word gives no strength.

The test addresses bacteriophage MS2 coat protein (bacteriophage MS2) (UniProt P03612). As to the kind of experiment: cryo-EM structure; single particle cryo-EM of purified MS2 virions (coat protein, A-protein and RNA genome); icosahedral reconstruction at 4.1 Å and asymmetric reconstruction at 8.7 Å; both purified.

B1: bacteriophage MS2 maturation protein (A-protein) (protein, UniProt P03610 1-393)
chain: MRAFSTLDRENETFVPSVRVYADGETEDNSFSLKYRSNWTPGRFNSTGAKTKQWHYPSPYSRGALSVTSIDQGAYKRSGSSWGRPYEEKAGFGFSLDARSCYSLFPVSQNLTYIEVPQNVANRASTEVLQKVTQGNFNLGVALAEARSTASQLATQTIALVKAYTAARRGNWRQALRYLALNEDRKFRSKHVAGRWLELQFGWLPLMSDIQGAYEMLTKVHLQEFLPMRAVRQVGTNIKLDGRLSYPAANFQTTCNISRRIVIWFYINDARLAWLSSLGILNPLGIVWEKVPFSFVVDWLLPVGNMLEGLTAPVGCSYMSGTVTDVITGESIISVDAPYGWTVERQGTAKAQISAMHRGVQSVWPTTGAYVKSPFSMVHTLDALALIRQRLSR
For B1, the binding result is given as “binds”.
